Values from PubChem BioAssay AID1224826 (NIAID, 2016).
Aim: 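Knock-downs that raise or lower Tnf reporter signal after endotoxin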 (primary screen). Cells: RAW264.7 G9 macrophages from mouse bearing reporters for p65 (GFP) and the Tnf promoter (mCherry). Reagents: siRNA pool against mouse genes, 100 nM. Timing: 16 h of LPS stimulation, after 2 days of siRNA transfection. Conditions: bacterial lipopolysaccharide (Salmonella minnesota R595), 10 ng/ml. Measurement: 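Imaged Tnf reporter mCherry in nuclei, minus background, normalised per plate to the median and expressed as robust z-scores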. Scale: Tnf reporter robust z-score: higher = stronger Tnf promoter reporter signal after LPS; Tnf reporter intensity: higher = stronger Tnf promoter reporter signal. Hit rule: 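a well counts as active at a score of -1.3 or below (Tlr4 knock-down control median) or above 3 (raised signal); controls and wells holding fewer than 50 cells are excluded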. Meaning of the calls: active = Tnf reporter clearly lowered or raised; inactive = no clear change in Tnf reporter.
The whole screen tested about 17,000 reagents; this is a part drawn at random. In the full data, about 1,110 (6.6%) are marked active. 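Active means lowered or raised reporter signal; replicate intensities are raw and not normalised per plate.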 Reagents against one gene are numbered here.

target gene	reagent no.	Tnf reporter robust z-score	fewer than 50 cells in well	Tnf reporter intensity, replicate 1	Tnf reporter intensity, replicate 2	call
Nuf2	1		fewer than 50 cells per well; well left out of calls	126	155	inactive
Btg2	1	0.33	enough cells in well	155	188	inactive
Muc4	1	2.93	enough cells in well	342	271	inactive
Muc4	2		fewer than 50 cells per well; well left out of calls	189	32.4	inactive
Stx12	1	0.17	enough cells in well	96.3	114	inactive
Nvl	1	-1.17	enough cells in well	131	76.3	inactive
Or8c11	1	0.07	enough cells in well	172	132	inactive
Tbc1d12	1	-0.81	enough cells in well	86.7	84.8	inactive
Tmem131	1	1.24	enough cells in well	283	200	inactive
Map3k7	1		fewer than 50 cells per well; well left out of calls	0	124	inactive
AB124611	1	0.55	enough cells in well	247	145	inactive
Acox1	1	0.55	enough cells in well	199	201	inactive
Ate1	1	0.36	enough cells in well	199	178	inactive
Ybx1	1	-0.49	enough cells in well	229	130	inactive
Epcam	1	-0.11	enough cells in well	200	144	inactive
Pnkp	1	0.17	enough cells in well	179	197	inactive
Ubl3	1	-0.46	enough cells in well	201	186	inactive
Sf3b3	1	-1.49	enough cells in well	23.8	71.5	active
Prss43	1	0.89	enough cells in well	155	119	inactive
Nkg7	1	0.47	enough cells in well	267	220	inactive
Vpreb3	1	-0.79	enough cells in well	143	200	inactive
Shc3	1	0.78	enough cells in well	370	256	inactive
Prmt3	1	0.4	enough cells in well	309	166	inactive
Nr1h2	1	-1.96	enough cells in well	90.6	75.6	active
Lrp12	1	-0.45	enough cells in well	109	157	inactive
Stxbp6	1	0.16	enough cells in well	114	68.2	inactive
Fam20a	1	-0.13	enough cells in well	170	230	inactive
Hapln2	1	2.02	enough cells in well	469	238	inactive

Active calls, of those listed so far:
target gene	reagent no.	Tnf reporter robust z-score	fewer than 50 cells in well	Tnf reporter intensity, replicate 1	Tnf reporter intensity, replicate 2	call
Sf3b3	1	-1.49	enough cells in well	23.8	71.5	active
Nr1h2	1	-1.96	enough cells in well	90.6	75.6	active

The results go on.
target gene	reagent no.	Tnf reporter robust z-score	fewer than 50 cells in well	Tnf reporter intensity, replicate 1	Tnf reporter intensity, replicate 2	call
Slc45a2	1	0.27	enough cells in well	275	234	inactive
2410018L13Rik	1	-1.44	enough cells in well	148	30.2	active
Tmem42	1		fewer than 50 cells per well; well left out of calls	269	88	inactive
Ikzf5	1	0.39	enough cells in well	154	126	inactive
Catsperg2	1	0.51	enough cells in well	249	28.3	inactive
Tyw3	1	-0.33	enough cells in well	179	110	inactive
Aadacl4fm1	1	-0.62	enough cells in well	148	143	inactive
Ggct	1	0.47	enough cells in well	215	159	inactive
Krtap6-1	1	0.5	enough cells in well	204	168	inactive
Dbndd2	1	1.48	enough cells in well	289	236	inactive
Gna12	1	1.34	enough cells in well	344	247	inactive
Ascl2	1		fewer than 50 cells per well; well left out of calls	131	96.9	inactive
Tnfsf13b	1	-0.31	enough cells in well	230	107	inactive
Aqr	1		fewer than 50 cells per well; well left out of calls	179	182	inactive
Efna4	1	0.6	enough cells in well	269	284	inactive
Wdfy2	1	-0.06	enough cells in well	120	78	inactive
Zfp866	1	0.22	enough cells in well	254	132	inactive
Dennd1a	1	-0.2	enough cells in well	162	140	inactive
F2rl1	1	-0.82	enough cells in well	144	234	inactive
Fpr3	1	0.55	enough cells in well	241	376	inactive
Fpr3	2	-0.41	enough cells in well	170	282	inactive
Angpt1	1	1.47	enough cells in well	219	290	inactive
Ap1m1	1	0.15	enough cells in well	205	207	inactive
Vmn1r87	1	-0.99	enough cells in well	213	49.6	inactive
Zxdc	1	-0.4	enough cells in well	180	178	inactive
Jarid2	1	-1.51	enough cells in well	114	76.4	active
Nckipsd	1	-0.34	enough cells in well	237	140	inactive
Traip	1	-0.14	enough cells in well	198	244	inactive
Ppp1r3a	1	0.76	enough cells in well	334	221	inactive
Trp53bp2	1	0	enough cells in well	225	235	inactive
